Results are given in words; binding and its absence hold for the method and conditions named. In cells and extracts the contact can be indirect. A result given as binding can be weak or reduced; the word gives no strength.

The target in the assay is HIV-1-derived Gag (wild type), C-terminally tagged (HIV-1). The experiment in a line: co-IP.

B1: ubiquitin-specific protease 8 (USP8) (enzyme, UniProt P40818 1-1118)
chain: MPAVASVPKELYLSSSLKDLNKKTEVKPEKISTKSYVHSALKIFKTAEECRLDRDEERAYVLYMKYVTVYNLIKKRPDFKQQQDYFHSILGPGNIKKAVEEAERLSESLKLRYEEAEVRKKLEEKDRQEEAQRLQQKRQETGREDGGTLAKGSLENVLDSKDKTQKSNGEKNEKCETKEKGAITAKELYTMMTDKNISLIIMDARRMQDYQDSCILHSLSVPEEAISPGVTASWIEAHLPDDSKDTWKKRGNVEYVVLLDWFSSAKDLQIGTTLRSLKDALFKWESKTVLRNEPLVLEGGYENWLLCYPQYTTNAKVTPPPRRQNEEVSISLDFTYPSLEESIPSKPAAQTPPASIEVDENIELISGQNERMGPLNISTPVEPVAASKSDVSPIIQPVPSIKNVPQIDRTKKPAVKLPEEHRIKSESTNHEQQSPQSGKVIPDRSTKPVVFSPTLMLTDEEKARIHAETALLMEKNKQEKELRERQQEEQKEKLRKEEQEQKAKKKQEAEENEITEKQQKAKEEMEKKESEQAKKEDKETSAKRGKEITGVKRQSKSEHETSDAKKSVEDRGKRCPTPEIQKKSTGDVPHTSVTGDSGSGKPFKIKGQPESGILRTGTFREDTDDTERNKAQREPLTRARSEEMGRIVPGLPSGWAKFLDPITGTFRYYHSPTNTVHMYPPEMAPSSAPPSTPPTHKAKPQIPAERDREPSKLKRSYSSPDITQAIQEEEKRKPTVTPTVNRENKPTCYPKAEISRLSASQIRNLNPVFGGSGPALTGLRNLGNTCYMNSILQCLCNAPHLADYFNRNCYQDDINRSNLLGHKGEVAEEFGIIMKALWTGQYRYISPKDFKITIGKINDQFAGYSQQDSQELLLFLMDGLHEDLNKADNRKRYKEENNDHLDDFKAAEHAWQKHKQLNESIIVALFQGQFKSTVQCLTCHKKSRTFEAFMYLSLPLASTSKCTLQDCLRLFSKEEKLTDNNRFYCSHCRARRDSLKKIEIWKLPPVLLVHLKRFSYDGRWKQKLQTSVDFPLENLDLSQYVIGPKNNLKKYNLFSVSNHYGGLDGGHYTAYCKNAARQRWFKFDDHEVSDISVSSVKSSAAYILFYTSLGPRVTDVAT
Regarding B1, the binding result was “binds”.

Source of the values: doi:10.1101/2025.05.27.656518.
